This experiment has as its target myocyte-specific enhancer factor 2d (Mef2d) (mouse (endogenous in the ILC2 Bl6 cell line)) (UniProt Q63943). The experiment is described as follows: affinity purification with mass spectrometry; anti-Mef2d antibody on protein A/G Dynabeads, overnight at 4 C; cytoplasmic lysate (50 mM Tris pH 8.0, 0.1% NP40, 10% glycerol, 2 mM EDTA) and nuclear extract of ILC2s (ILC2 Bl6 cell line), before and after LTC4 stimulation; LC-MS/MS (Orbitrap Velos), Mascot and Scaffold.

By UniProt entry, the sequences of proteins in these tests, tags left out.
UniProt Q63943: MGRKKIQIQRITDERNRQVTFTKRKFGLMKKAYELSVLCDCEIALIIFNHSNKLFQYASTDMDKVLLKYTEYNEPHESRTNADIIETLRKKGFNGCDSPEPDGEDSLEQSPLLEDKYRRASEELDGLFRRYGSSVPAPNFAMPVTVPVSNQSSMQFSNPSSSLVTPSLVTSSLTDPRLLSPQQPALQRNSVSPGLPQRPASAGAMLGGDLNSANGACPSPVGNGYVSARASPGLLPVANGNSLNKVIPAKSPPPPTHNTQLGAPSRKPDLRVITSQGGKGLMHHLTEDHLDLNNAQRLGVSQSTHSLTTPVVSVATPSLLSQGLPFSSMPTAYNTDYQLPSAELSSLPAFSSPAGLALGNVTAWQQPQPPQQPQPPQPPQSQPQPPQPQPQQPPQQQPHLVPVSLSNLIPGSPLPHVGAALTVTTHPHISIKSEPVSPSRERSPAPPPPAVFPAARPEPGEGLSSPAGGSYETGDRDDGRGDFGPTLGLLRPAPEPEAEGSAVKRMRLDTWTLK
UniProt Q60929: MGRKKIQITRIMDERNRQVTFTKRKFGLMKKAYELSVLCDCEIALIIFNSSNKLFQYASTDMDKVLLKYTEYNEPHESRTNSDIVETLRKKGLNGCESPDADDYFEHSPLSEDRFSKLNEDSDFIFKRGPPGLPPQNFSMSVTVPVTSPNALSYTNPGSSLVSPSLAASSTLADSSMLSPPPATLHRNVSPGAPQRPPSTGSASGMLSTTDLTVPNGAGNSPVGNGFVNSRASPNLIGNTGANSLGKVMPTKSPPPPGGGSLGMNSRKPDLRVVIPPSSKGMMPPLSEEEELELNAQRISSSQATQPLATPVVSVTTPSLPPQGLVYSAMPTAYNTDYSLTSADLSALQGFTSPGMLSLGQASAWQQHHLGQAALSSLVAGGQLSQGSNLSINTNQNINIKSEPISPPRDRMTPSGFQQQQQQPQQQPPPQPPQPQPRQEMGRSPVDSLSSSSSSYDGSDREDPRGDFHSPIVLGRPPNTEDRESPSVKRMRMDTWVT

These are yes or no findings as the source states them, for the method shown. Binding seen in cells or lysates may run through a third protein. A yes stands for co-enrichment or nearness to the bait. Other partners may have been found.

With Mef2a (from UniProt Q60929 1-498), the binding entry was “binds”.

B1: NFAT1 (encoded by Nfatc2) (protein, UniProt Q60591 1-927)
chain: MDVPEPQPDPDGGDGPGHEPGGSPQDELDFSILFDYDYLNPIEEEPIAHKAISSPSGLAYPDDVLDYGLKPCNPLASLSGEPPGRFGEPDSIGFQNFLSPVKPAGASGPSPRIEITPSHELMQAGGALRGRDAGLSPEQPALALAGVAASPRFTLPVPGYEGYREPLCLSPASSGSSASFISDTFSPYTSPCVSPNNAGPDDLCPQFQNIPAHYSPRTSPIMSPRTSLAEDSCLGRHSPVPRPASRSSSPGAKRRHSCAEALVAPLPAASPQRSRSPSPQPSPHVALQDDSIPAGYPPTAGSAVLMDALNTLATDSPCGIPSKIWKTSPDPTPVSTAPSKAGLARHIYPTVEFLGPCEQEERRNSAPESILLVPPTWPKQLVPAIPICSIPVTASLPPLEWPLSNQSGSYELRIEVQPKPHHRAHYETEGSRGAVKAPTGGHPVVQLHGYMENKPLGLQIFIGTADERILKPHAFYQVHRITGKTVTTTSYEKIVGNTKVLEIPLEPKNNMRATIDCAGILKLRNADIELRKGETDIGRKNTRVRLVFRVHVPEPSGRIVSLQAASNPIECSQRSAHELPMVERQDMDSCLVYGGQQMILTGQNFTAESKVVFMEKTTDGQQIWEMEATVDKDKSQPNMLFVEIPEYRNKHIRVPVKVNFYVINGKRKRSQPQHFTYHPVPAIKTEPSDEYEPSLICSPAHGGLGSQPYYPQHPMLAESPSCLVATMAPCQQFRSGLSSPDARYQQQSPAAALYQRSKSLSPGLLGYQQPSLLAAPLGLADAHRSVLVHAGSQGQGQGSTLPHTSSASQQASPVIHYSPTNQQLRGGGHQEFQHIMYCENFGPSSARPGPPPINQGQRLSPGAYPTVIQQQTAPSQRAAKNGPSDQKEALPTGVTVKQEQNLDQTYLDDVNEIIRKEFSGPPSRNQT
As for B1, the binding result is “binds”.

For the origin of these results see paper PMC7616247.
